# According to PubChem BioAssay AID493014 (National Center for Advancing Translational Sciences (NCATS), 2011):
# Among all 340,000 compounds or so, about 170 (0.05%) were called active. The shares of active, inactive and inconclusive entries below differ from those in the screen. Calls follow the shape of the dose curve; as a rule, active = well fitted inhibition curve with a large enough effect in the signal ratio, with a control signal flat (not every such curve was filed as active); inconclusive = small, poorly fitted or top-dose-only effect, or effect the other way, or a change in a side signal; inactive = flat fitted curve, though single readings scatter; the % refers to the signal ratio. Potencies beside an inconclusive call are fits to weak or partial responses and may not hold up.
# Assay: qHTS Assay to Find Inhibitors of Chronic Active B-Cell Receptor Signaling;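 as to activity change, negative = inhibition: plate controls were basal doxycycline-induced cells for no effect and cells given 10 µM MG132 for full effect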
# Details: ABC-DLBCL IkBa-CBG/CBR reporter, luminescence ratio (green luciferase fused to IkBa over red control in TMD8 lymphoma cells), 4 h; activity change, negative = inhibition: at 46.1 µM (top of the series)
# How it was run: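 Compounds up to 46 uM were incubated four hours with TMD8 cells whose green CBG68 luciferase is fused to IkappaBalpha; red CBR luminescence normalised the signal, and concentration-effect curves were fitted to fusion, red and ratio data.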
# Potency is read from the fitted curve at half-maximal effect.
SMILES,Potency,"activity change, negative = inhibition"
COc1ccc(NC(=O)CC(C(=O)O)N2CCCCC2)cc1 (stereo not drawn),"inconclusive: 0.00731 µM [falling, full curve, poor fit]",
O=C(N/N=C\c1ccncc1)c1ccc(Cl)s1,"inconclusive: 10 µM [falling, partial curve, poor fit]",
COc1ccc(C(=O)NC(=S)NC2CCSC2=O)cc1 (stereo not drawn),"inconclusive: 29.1 µM [falling, single point]",
N#Cc1cc(NC2CCCC2)c([N+](=O)[O-])cc1C#N,,inconclusive: 8.4%
COC(=O)c1cccc(NC(=O)CSc2ncn[nH]2)c1,"inconclusive: 4.61 µM [falling, full curve, poor fit]",
Cc1cccc(/C(N)=N/OC(=O)COc2ccc(Cl)c(C)c2)c1,,inconclusive: -0.0939%
CCOC(=O)n1c(=O)[nH]c2ccc(Br)cc21,,inactive: 1.16%
Cc1nc2c(C(=O)NCc3ccccc3)cnn2c(C)c1Cc1ccc(F)cc1,,inactive: 8.69%
CSc1oc(-c2ccccc2)nc1S(=O)(=O)c1ccc(F)cc1,,inconclusive: 9.12%
CCS(=O)(=O)Nc1ccc(C(=O)c2ccccc2)cc1,,inconclusive: -22.2%
Nc1nonc1N/N=C\c1ccccc1,,inactive: -20%
Cc1ccc(-n2nc3c(SCCN4CCOCC4)nnc(C)c3c2C)cc1,,inconclusive: -8.54%
Cc1cccn2c(=O)c3cc(C(=O)N4CCN(Cc5ccccc5)CC4)sc3nc12,,inconclusive: -5.36%
CC(C)(C)c1ccc(C(=O)NC(=O)COC(=O)c2ccco2)cc1,,inconclusive: 9.76%
O=C(O)c1ccc2c(c1)c1c3n2CCNC3CCC1 (stereo not drawn),,inconclusive: -14%
CCOC(=O)C1=CC[C@H]2c3c(c4ccccc4n3C)C(=O)C1N2C(=O)OC(C)(C)C,,inactive: -0.937%
O=C(Cn1c(=O)oc2ccccc21)Nc1ccc(Cl)cc1,"inconclusive: 1.26 µM [falling, partial curve, poor fit]",
CCOc1cc(CC(=O)N[C@@H](CC(C)C)c2ccccc2N2CCCCC2)ccc1C(=O)O,,inconclusive: 10.5%
O=C(COC(=O)CSc1ccc(F)cc1)NNC(=O)c1ccc([N+](=O)[O-])cc1,,inconclusive: -6.67%
O=C1c2ccccc2NC(c2ccc(-c3ccc(F)cc3)o2)N1O (stereo not drawn),,inconclusive: -16.1%
CCOC(=O)C=Nc1c(N)n(C)c(=O)n(C)c1=O,,inactive: 4.58%

SMILES,Potency,"activity change, negative = inhibition"
O=C(Nc1ccc(N2CCOCC2)nc1)c1cccs1,"inconclusive: 35.5 µM [rising, single point]",
COc1cccc(C(=O)NNC(=O)Cc2ccc(Cl)cc2)c1,,inconclusive: -22.6%
CC(Sc1nnnn1-c1ccccc1)C(=O)Nc1ccc(N2CCN(C)CC2)cc1 (stereo not drawn),,inactive: 12.3%
Cc1ccc(S(=O)(=O)N(C)C)cc1NC(=O)c1ccccc1SCC(=O)N1CCCC1,,inconclusive: 2.28%
CC(C)Cn1c(N2CCN(CC(=O)Nc3ccc(Cl)cc3)CC2)nc2ccccc21,,inactive: -9.17%
Cc1ccsc1/C=N/NC(=O)c1sccc1C,"inconclusive: 0.501 µM [falling, full curve, poor fit]",
COc1ccc(NC(=O)C(C)Oc2ccc(/C(C)=N\O)cc2)cc1 (stereo not drawn),,inconclusive: -17%
COc1ccccc1CNC(=O)C(=O)NCC1CCCN1S(=O)(=O)c1cccs1 (stereo not drawn),"inconclusive: 18.4 µM [falling, partial curve, poor fit]",
COc1ccc(-n2c(SC3CCOC3=O)nc3ccccc3c2=O)cc1Cl (stereo not drawn),,inactive: 2.93%
Cc1ccc(CCNC(=O)CCN2N=C(c3ccc(C)cc3)CCC2=O)cc1,"inconclusive: 3.55 µM [falling, full curve]",
COc1ccccc1-c1ccc(SCc2ccc(F)cc2)nn1,"inconclusive: 14.1 µM [falling, partial curve]",
Cn1c(C(=O)Nc2ccc(Cl)cc2)cc2cc(Cl)ccc21,,inactive: -5.74%
COC(=O)[C@@H](Cc1c[nH]c2ccccc12)NC(=O)C1CCCN(S(=O)(=O)c2ccc(C)cc2)C1 (stereo partly drawn),,inconclusive: -25.6%
Cc1cccc(-c2nnc(SCC(=O)N3CCCC3)o2)c1,,inconclusive: -21.7%
Clc1ccc(OCCCn2ccnc2)c(Br)c1,,inconclusive: 5.29%
N#Cc1ccccc1OCC(=O)Nc1ccccc1C(=O)NC1CC1,,inactive: -14.9%
CN1/C(=C\C(=O)CSc2ncn[nH]2)C(C)(C)c2ccccc21,,inactive: -10.3%
Cc1ccc(-n2ncc3c(=O)[nH]c(SCC(=O)N4CCC(C)CC4)nc32)cc1C,,inconclusive: 9.71%
COc1cc(NC(=O)c2cc3ccccc3cc2O)c(OC)cc1Cl,,inconclusive: 4.71%
COc1ccccc1CNC(=S)Nc1ccc2nc(N3CCN(C)CC3)cc(C)c2c1,,inconclusive: 26.1%
N#Cc1cc2c(nc1SCC1COc3ccccc3O1)CCC2 (stereo not drawn),,inconclusive: 10.5%

SMILES,Potency,"activity change, negative = inhibition"
CCn1c(-c2csc3ccccc23)n[nH]c1=S,"inconclusive: 13 µM [falling, partial curve]",
COc1ccc(CCNC(=O)c2[nH]c(C)c(C(C)=O)c2C)cc1OC,,inactive: -13.8%
O=c1[nH]c(COc2ccc(Cl)cc2Br)nc2ccccc12,,inconclusive: 5.92%
Cn1c(N/N=C/c2cc3ccccc3nc2Cl)nc2ccccc21,"inconclusive: 25.9 µM [cytotoxic, single point]",
CSC(=S)N/N=C/c1ccccc1,,inactive: 5.96%
N#CC1(NC(=O)COC(=O)CCN=C2NS(=O)(=O)c3ccccc32)CCCCC1,,inconclusive: 1.39%
CCCCCCOc1ccc(N2C(=O)CC(SCCN)C2=O)cc1 (stereo not drawn),,inconclusive: -0.143%
COc1ccc2[nH]c(C(=O)N/N=C/c3ccc(OC)c(O)c3)cc2c1,"inconclusive: 20 µM [falling, single point]",
CCSc1nnc(NC(=O)c2cccnc2Cl)s1,"inconclusive: 29.1 µM [falling, single point]",
Cn1nc(C(F)(F)F)c(C(=O)Nc2ccc(F)cc2F)c1Cl,,inconclusive: 5.39%
Fc1ccc(/C=N/n2c(C3CCCCC3)n[nH]c2=S)cc1,,inconclusive: 2.19%
CCOc1ccc(NC(=O)CSc2ncc(-c3ccc(F)cc3)n2Cc2ccco2)cc1,,inconclusive: 0.227%
Cc1ccc(C)c(N2CCN(C(=O)C3CCCCN3S(=O)(=O)c3ccc(F)cc3)CC2)c1 (stereo not drawn),,inconclusive: 5.29%
COc1ccc(CNc2ncccn2)cc1OC,,inconclusive: -1.09%
CCOC(=O)C1CCN(CC(=O)Nc2cc(S(=O)(=O)N3CCCCC3)ccc2Cl)CC1,,inactive: 6.37%
COc1ccc(Cl)cc1NC(=O)c1cc(-c2ccccc2O)n[nH]1,"inconclusive: 29.1 µM [falling, single point]",
O=C(CSc1ncnc2ccccc12)Nc1ccc2c(c1)OCCO2,,inconclusive: -19.7%
COc1ccccc1/C=C/CN1CCC(n2nccc2NC(=O)CCc2ccccc2)CC1,"inconclusive: 17.8 µM [falling, single point]",
Cc1ccc(C)c(N2CCN(S(=O)(=O)c3ccc4c(c3)CCC(=O)N4)CC2)c1,,inconclusive: -0.977%
CN(CC(=O)Nc1ncn[nH]1)S(=O)(=O)c1cc(Cl)ccc1Cl,,inconclusive: -0.0849%
COc1cc(CNc2nc3ccccc3n2C)cc(OC)c1OC,,inconclusive: 0.0109%

SMILES,Potency,"activity change, negative = inhibition"
CC(=O)Nc1ccc(S(=O)(=O)NNC(=O)COc2ccc(Cl)cc2Cl)cc1,,inconclusive: -8.71%
S=C1NCN(Cc2ccco2)CN1CCc1ccccc1,,inactive: -6.6%
COc1ccc(-n2c(C)cc(/C=C3\SC(=S)NC3=O)c2C)cc1,,inactive: 27.5%
CCOc1ccc(/C=C2\SC(=S)N(CCC(=O)N(CCO)c3ccccc3)C2=O)cc1,"inconclusive: 25.1 µM [falling, partial curve]",
CN1CCN(c2ccccc2NC(=S)NC(=O)c2cc3ccccc3o2)CC1,,inconclusive: 8.39%
Cc1ccccc1C(=O)Nc1cccc(NC(=O)c2ccccc2[N+](=O)[O-])c1,,inactive: -14%
CC(=O)c1c(N)c(C#N)c(C)n1-c1ccc(Br)cc1,"inconclusive: 29.1 µM [falling, single point]",
C=CCn1c(CCNC(=O)c2ccccc2F)nnc1SCC(=O)Nc1nc2ccccc2s1,,inconclusive: -1.88%
N#Cc1ccc(S(=O)(=O)N2CCc3[nH]c4ccc(F)cc4c3C2)cc1,"inconclusive: 39.8 µM [falling, partial curve, poor fit]",
Cc1ccc(-c2nc(CS(=O)(=O)CC(=O)NCCCN(Cc3ccccc3)C(C)C)c(C)o2)cc1,,inconclusive: -4.28%
O=C(CCSCCc1ccccn1)Nc1cc(F)ccc1F,,inconclusive: -29.2%
O=C(NNC(=O)c1cccc(Br)c1)C(=O)N1CCCCC1,,inconclusive: 1.9%
O=C(O)Cn1c(-c2cscn2)nc2ccccc21,,inconclusive: 2.47%
CC(C)(C)OC(=O)NCCCCCNC(=O)c1nc[nH]c1C(=O)NCCCCCNC(=O)OC(C)(C)C,,inconclusive: -19.4%
CC(C)c1ccc(CNCCCSc2ncccn2)cc1,,inconclusive: -1.49%
Cc1nn(-c2ccccc2)c(=S)c2ccccc12,,inconclusive: -7.43%
O=C(O)CCC(=O)Nc1ccc(-c2csc(Nc3cccc4ccccc34)n2)cc1,"inconclusive: 20.6 µM [falling, partial curve]",
O=C(CCCc1ccccc1)NCc1ccccc1,"inconclusive: 35.5 µM [falling, single point]",
COc1ccc(C(=O)n2nc(C)cc2C)cc1Br,,inconclusive: 12.7%
COc1ccc(N(CC(O)Cn2nnc3ccccc32)S(=O)(=O)c2ccc(C)cc2)cc1 (stereo not drawn),,inconclusive: 0.672%

# Four entries picked at random from the list so far, as already listed:
SMILES,Potency,"activity change, negative = inhibition"
CN1CCN(c2ccccc2NC(=S)NC(=O)c2cc3ccccc3o2)CC1,,inconclusive: 8.39%
CCOc1ccc(/C=C2\SC(=S)N(CCC(=O)N(CCO)c3ccccc3)C2=O)cc1,"inconclusive: 25.1 µM [falling, partial curve]",
O=C(O)CCC(=O)Nc1ccc(-c2csc(Nc3cccc4ccccc34)n2)cc1,"inconclusive: 20.6 µM [falling, partial curve]",
CC(=O)c1c(N)c(C#N)c(C)n1-c1ccc(Br)cc1,"inconclusive: 29.1 µM [falling, single point]",
